Experimental data reported in PubChem BioAssay (Tox21).
Where “and” joins values, the source holds several entries; their conditions need not be identical. Equal entries are not always repeated. Inconclusive means that the source gave no clear call. Such entries were picked first, then a sample of the others. Where the call is inconclusive, the potency comes from a doubtful curve fit. A structure can be active in one record and inactive in another. Calls of active or inactive are those of the source. Calls follow the shape of the dose curve; as a rule, active = well fitted inhibition curve with a large enough effect in the repeat runs; inconclusive = weak or mixed curves; inactive = no such curve, though single readings can be large or run the other way.

By UniProt entry, the sequences of proteins in these tests, tags left out.
UniProt P10635, whole entry, looked up: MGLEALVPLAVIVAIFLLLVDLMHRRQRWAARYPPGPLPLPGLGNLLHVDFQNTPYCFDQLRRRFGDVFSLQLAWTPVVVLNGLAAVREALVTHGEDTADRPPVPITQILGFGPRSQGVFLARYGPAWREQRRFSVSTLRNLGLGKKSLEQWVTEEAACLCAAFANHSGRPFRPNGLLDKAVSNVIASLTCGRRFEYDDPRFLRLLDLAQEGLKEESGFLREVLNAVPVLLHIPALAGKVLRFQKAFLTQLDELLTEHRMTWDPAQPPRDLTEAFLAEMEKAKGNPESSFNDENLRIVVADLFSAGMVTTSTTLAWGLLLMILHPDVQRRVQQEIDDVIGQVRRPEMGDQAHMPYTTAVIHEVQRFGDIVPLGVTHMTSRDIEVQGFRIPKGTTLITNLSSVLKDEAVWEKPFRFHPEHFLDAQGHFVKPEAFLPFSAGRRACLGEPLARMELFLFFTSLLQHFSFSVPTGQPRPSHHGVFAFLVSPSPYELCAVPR
UniProt P33261, whole entry, looked up: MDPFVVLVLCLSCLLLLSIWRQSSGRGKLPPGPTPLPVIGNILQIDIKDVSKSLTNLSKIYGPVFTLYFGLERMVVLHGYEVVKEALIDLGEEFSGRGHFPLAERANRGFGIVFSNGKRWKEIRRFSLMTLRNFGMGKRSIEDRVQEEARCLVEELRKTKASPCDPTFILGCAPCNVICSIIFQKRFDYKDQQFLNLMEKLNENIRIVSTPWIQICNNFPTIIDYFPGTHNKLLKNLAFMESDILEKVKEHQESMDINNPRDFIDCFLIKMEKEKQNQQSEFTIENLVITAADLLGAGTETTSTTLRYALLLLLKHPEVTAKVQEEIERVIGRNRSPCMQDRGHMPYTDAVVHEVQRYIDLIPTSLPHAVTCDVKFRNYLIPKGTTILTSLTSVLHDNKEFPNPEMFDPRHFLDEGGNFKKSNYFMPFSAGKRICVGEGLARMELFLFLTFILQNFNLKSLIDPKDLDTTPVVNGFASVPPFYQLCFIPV

Target: Cytochrome P450 2D6 (Homo sapiens) (UniProt P10635)
Test: Cytochrome P450 Family 2 Subfamily D Member 6 (CYP2D6) small molecule antagonists: luciferase reporter qHTS assay (AID 1671196); also: nearly all actives have a fitted effect of over 50% in size
Conditions: P450-Glo CYP2D6 enzyme assay, luciferin luminescence, 1 h; series mostly up to 115 µM
Summary of the method: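 Each well received CYP2D6 with its proluciferin substrate and chemical, sat 10 min, then got NADPH regeneration solution for 1 h at room temperature. Luminescence in RLU served as the activity measure.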
Potency is read from the fitted curve at half-maximal effect.

Row | Compound | Potency
1 | Cc1cc(C)nc(NS(=O)(=O)c2ccc(N)cc2)n1 | inconclusive: 71.8 µM [inhibitor, partial curve]
2 | Cc1cc(=O)oc2cc(O)ccc12 | inactive
3 | c1ccc2cc3c(ccc4ccccc43)cc2c1 | active: 35.7 µM and inconclusive: 71 µM [inhibitor, partial curve, poor fit]

Target: Cytochrome P450 2C19 (Homo sapiens) (UniProt P33261)
Test: Cytochrome P450 Family 2 Subfamily C Member 19 (CYP2C19) small molecule antagonists: luciferase reporter qHTS assay (AID 1671197); also: nearly all actives have a fitted effect of over 65% in size
Conditions: P450-Glo CYP2C19 enzyme, luciferin luminescence, 1 h; series mostly up to 115 µM
Summary of the method: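 Light output is proportional to CYP2C19 activity: proluciferin substrate is converted to luciferin, then detected by a luciferin detection reagent that also stops the 1 h, 37C NADPH-driven reaction. Ketoconazole serves as positive control.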

Row | Compound | Potency
4 | CCOC(=O)Cn1cccc1-c1nc(-c2ccc(OC)cc2)c(-c2ccc(OC)cc2)s1 | active: 3.89 µM
5 | OC[C@@H](O)[C@@H](O)[C@H](O)[C@H](O)CO | inconclusive: 89.4 µM [inhibitor, single point]
6 | CC/C=C1/OC(=O)c2ccccc21 | inconclusive: 55.1 µM [inhibitor, partial curve, poor fit]
7 | CCCCOCCOCCSC#N | active: 8.4 µM and inactive
8 | C=C(C)CC(C)(C)C | inactive
9 | O=C(Nc1ccc2c(O)c(N=Nc3ccc(N=Nc4ccc(S(=O)(=O)O)cc4)cc3)c(S(=O)(=O)O)cc2c1)c1ccccc1 | inconclusive: 89.4 µM [inhibitor, single point]
10 | CC(=O)Nc1ccc(C)cc1C | inconclusive: 22.4 µM [inhibitor, partial curve, poor fit]
11 | CCC(N)(CO)CO | inactive
12 | O=C1Cc2cc(Cl)ccc2N1 | inconclusive: 38.9 µM [inhibitor, single point]
13 | O=c1cc[nH]c(=O)[nH]1 | inconclusive: 43.6 µM [inhibitor, single point]
14 | O=C(Nc1ccc(Cl)c(Cl)c1)c1cc(Cl)cc(Cl)c1O | inconclusive: 14.2 µM [inhibitor, full curve]
15 | CC(=O)Nc1cc(S(=O)(=O)O)cc2cc(S(=O)(=O)O)c(N=Nc3ccccc3)c(O)c12 | active: 39.9 µM
16 | CCc1cccc(O)c1 | inconclusive: 92.1 µM [inhibitor, single point]
17 | Cc1cc(=O)oc2cc(O)ccc12 | inconclusive: 89.4 µM [inhibitor, single point]
18 | c1ccc2cc3c(ccc4ccccc43)cc2c1 | inconclusive: 7.13 µM [inhibitor, full curve, poor fit] and active: 50.2 µM
